Experimental data as given in US11187660B2, “Fluorescent probes for monitoring voltage by photo-induced electron transfer” (The Regents of the University of California, priority 2011, dated 2021).

What was measured:
[1] = system: HEK293 cells; test: Membrane staining of HEK cells (epifluorescence and confocal microscopy); format: cell-based, human; settings: for membrane localization / staining: 2 μM, 15 minutes at 37° C.
[2] = system: rat hippocampal neurons; test: Optical detection of evoked action potentials in cultured hippocampal neurons; format: cell-based; settings: 2 μM, 15 minutes
Procedure: To assay VF2.4.Cl's utility for monitoring neuronal activity, hippocampal neurons isolated from rats neonates were loaded with 2 μM VF2.4.Cl for 15 minutes, washed twice and imaged. […] Neurons were patched, current clamped, and injected with a small pulse (250-400 pA, 1-5 ms) to induce action potential firing. By using a high speed EMCCD camera, capable of sampling small regions of interest (ROI) at rates of approximately 2 kHz, enabled single trial optical detection of action potentials. An action potential with a total voltage change of ˜130 mV was well resolved optically and gave a ΔF/F of 24% with a signal-to-noise ratio of 16. […]
To assess whether VF probes can detect action potentials in single trials, we used cultured rat hippocampal neurons. […] The optical trace matched the physiology trace and gave about a 20% ΔF/F increase in fluorescence and a 16:1 signal-to-noise ratio (SNR) in a single trial. […]
Electrophysiological recordings of HEK293 cells and cultured neurons were performed with an Axopatch 200A or 200B amplifier (Molecular Devices) at room temperature. The signals were digitized with Digidata 1332A and recorded with pCLAMP 9 software (Molecular Devices) on a PC. […]
For voltage sensitivity measurements, regions of interest were drawn around clamped cells and the mean fluorescence measured in ImageJ or Slidebook. […]

Structure (SMILES) | membrane localization / staining [1] | membrane staining of neurons [2] | membrane staining ([1]; 100 nM)
CCCCN(CCCC)c1ccc(/C=C/c2ccc(/C=C/c3ccc(-c4c5cc(Cl)c(=O)cc-5oc5cc(O)c(Cl)cc45)c(S(=O)(=O)O)c3)cc2)cc1 [VF2.4.Cl, 5-(4-(4-(dibutylamino)styryl)styryl)-2-(2,7-dichloro-6-hydroxy-3-oxo-3H-xanthen-9-yl)benzenesulfonic acid] | excellent membrane localization | strong membrane staining; also recorded: membrane localization; also recorded: bright cell staining limited to the cell membranes | –
CN(C)c1ccc(/C=C/c2ccc(/C=C/c3ccc(-c4c5cc(Cl)c(=O)cc-5oc5cc(O)c(Cl)cc45)c(S(=O)(=O)O)c3)cc2)cc1 [VF2.1.Cl, 5-(4-(4-(dimethyllamino)styryl)styryl)-2-(2,7-dichloro-6-hydroxy-3-oxo-3H-xanthen-9-yl)benzenesulfonic acid] | – | – | bright staining of HEK cell membranes
CCCCN(CCCC)c1ccc(/C=C/c2ccc(-c3c4cc(Cl)c(=O)cc-4oc4cc(O)c(Cl)cc34)c(S(=O)(=O)O)c2)cc1 [VF1.4.Cl, (E)-5-(4-(dibutylamino)styryl)-2-(2,7-dichloro-6-hydroxy-3-oxo-3H-xanthen-9-yl)benzenesulfonic acid] | excellent membrane localization | – | –
CCCCN(CCCC)c1ccc2cc(/C=C/c3cc[n+](CCCS(=O)(=O)[O-])cc3)ccc2c1 [di-4-ANEPPS, reference compound] | significant internalization; also recorded: significant uptake into internal membranes | – | –

Entries after “also recorded” stand apart in the source; their conditions may differ.
